The test system of this experiment is C4-2B. As to the kind of experiment: Cell viability (Cell-Titer GLO), C4-2B. Conditions: read-out: Cell Viability IC50 C4-2B.

For `CNC(=O)c1ccc(N2C(=S)N(c3ccc(C#N)c(C(F)(F)F)c3)C(=O)C2(C)C)cc1F` [Enzalutamide], the IC50 was found to be 23.6 ± 0.61 µM.

Source of the values: patent US20230219925A1, “BENZO FIVE-MEMBERED NITROGEN HETEROCYCLIC COMPOUND AND APPLICATION THEREOF” (GUANGZHOU INSTITUTES OF BIOMEDICINE AND HEALTH CHINESE …, priority 2020, published 2023).
